The source of these data is patent US10457891B2, “Organic compounds” (Givaudan, S.A., priority 2013, dated 2019).

A short description of the data set: Odour description of the compound. As to conditions: odour description of neat compound.

Take `Cc1cc(CC(C)C)ccc1CCC=O` [Example 1, 3-(4-isobutyl-2-methylphenyl)propanal]: the Odor result is recorded as “floral, aldehydic, green, Lilial, watery”.
Then `Cc1cc(CC(C)C)cc(C)c1CCC=O` [Example 2, 3-(4-Isobutyl-2,6-dimethylphenyl)propanal], with “floral, aldehydic, fruity, slightly rosy”; and `Cc1cc(CC(C)C)ccc1CC(C)C=O` (centres unmarked) [Example 3, 3-(4-Isobutyl-2-methylphenyl)-2-methylpropanal], with “fatty, watery, floral, green, aldehydic”.
In the case of `Cc1cc(CC(C)C)ccc1C(C)CC=O` (centres unmarked) [Example 4, 3-(4-Isobutyl-2-methylphenyl)butanal], the Odor result is “floral, green, watery, fatty”.
Turning to `CCC(C)c1ccc(CCC=O)c(C)c1` (centres unmarked) [Example 5, 3-(4-(sec-Butyl)-2-methylphenyl)propanal], the Odor entry was “green, floral, marine, Lilial-like”.
To `CCC(C)(C)c1ccc(CCC=O)c(C)c1` [Example 6, 3-(2-Methyl-4-(tert-pentyl)phenyl)propanal] belongs “floral, green, weak”.
`Cc1cc(CCC(C)C)ccc1CCC=O` [Example 7, 3-(4-Isopentyl-2-methylphenyl)propanal]: the Odor entry is given as “aldehydic, floral, green, watery”.
On to `Cc1ccc(C(C)C)cc1C(C)CC=O` (centres unmarked) [Example 8, 3-(5-Isopropyl-2-methylphenyl)butanal], for which the Odor result is reported as “floral fruity, slightly rosy, slightly green”.
Consider `CC(C)Cc1ccc2c(c1)CC(C=O)C2` (centres unmarked) [Example 9, 5-Isobutyl-2,3-dihydro-1H-indene-2-carbaldehyde], for which the Odor result was “aldehydic, marine, watery, floral”.
`Cc1cc(CCCC(C)C)ccc1CCC=O` [Example 10, 3-(2-Methyl-4-(4-methylpentyl)phenyl)propanal]: the Odor result is listed as “floral, green, watery”.
In the case of `Cc1ccc(CCCC(C)C)cc1CCC=O` [Example 11, 3-(2-Methyl-5-(4-methylpentyl)phenyl)propanal], the Odor entry is recorded as “green, anisic, aldehydic, fatty”.
For `Cc1ccc(CC(C)C)cc1CCC=O` [Example 12, 3-(5-Isobutyl-2-methylphenyl)propanal], the Odor result is on record as “aldehydic, floral, pungent”.
As for `Cc1ccc(CCC(C)C)cc1CCC=O` [Example 13, 3-(5-Isopentyl-2-methylphenyl)propanal], the Odor result is “floral, aldehydic, watery, metallic”.
As for `Cc1ccc(CCC(C)C)cc1CC(C)C=O` (centres unmarked) [Example 14, 3-(5-Isopentyl-2-methylphenyl)-2-methylpropanal], the Odor result is recorded as “watery, aldehydic”.
Then `Cc1ccc(CC(C)C)cc1CC(C)C=O` (centres unmarked) [Example 15, 3-(5-Isobutyl-2-methylphenyl)-2-methylpropanal], with “green, fatty, aldehydic, bisabolene-like”; and `Cc1ccc(CCCC(C)C)cc1CC(C)C=O` (centres unmarked) [Example 16, 2-Methyl-3-(2-methyl-5-(4-methylpentyl)phenyl)propanal], with “watery, aldehydic, metallic, sharp, citrus, mandarin”; and `Cc1ccc(CCCC(C)C)cc1C(C)CC=O` (centres unmarked) [Example 17, 3-(2-Methyl-5-(4-methylpentyl)phenyl)butanal], with “weak, green, watery, floral”.
